Data published in PMC10525746.
For at least one entry, the source does not settle the construct or the ends of the probe. For some assays here: No signal at the amounts used counts as a negative.

Experiments:
MBP-BcWRKY22 [1] = assay: competition with a labelled probe; conditions: mutated competitor 10x, 100x, 250x, did not affect binding to N1; LightShift Chemiluminescent EMSA Kit (Beyotime); 3 ug crude protein, 100 nM biotin-labeled probe; pH and temperature not stated; recombinant protein; protein details: N-terminal MBP (pMAL-MBP vector)
MBP-BcWRKY22 [2] = assay: EMSA; conditions: 100 nM biotin probe, 3 ug protein; LightShift Chemiluminescent EMSA Kit (Beyotime); 3 ug crude protein, 100 nM biotin-labeled probe; pH and temperature not stated; recombinant protein; protein details: N-terminal MBP (pMAL-MBP vector)

Sequence	binding result (MBP-BcWRKY22 [1])	binding result (MBP-BcWRKY22 [2])
TATTCGTACAAGTACAACAAAAAAAAACTAATAAAATAAAATAGC (double strand) [BcCAT2 W-box-2 mutated probe (AGTCAA to AAAAAA)]	no binding	–
TATTCGTACAAGTACAACAAGTCAAAACTAATAAAATAAAATAGC (double strand) [BcCAT2 promoter W-box-2 probe]	–	binds
